Assay results: PubChem BioAssay AID1508636 (National Center for Advancing Translational Sciences (NCATS), 2021)
Inconclusive results, whose numbers are uncertain, are shown with a selection of clear calls. Entries that show only a call come without a potency. Potencies beside an inconclusive call are fits to weak or partial responses and may not hold up. Calls of active or inactive are those of the source. The call rests on the fitted dose curve; in most records, active means well fitted inhibition curve with a large enough effect; inconclusive means small, poorly fitted or top-dose-only effect; inactive means flat fitted curve, though single readings scatter. *1 amine or outer side, *2 acyl side, *3 side chain or, on linkers, in order; H or OH if unused. Where a SMILES comes first, the peptide text is derived from it. [ ]: non-standard residue; d: D form. X1 = O=C([C@@H](CC(O)CCl)O[*:1])[*:2]; aIle = CC[C@@H](C)[C@H](N)C(=O)O; NMeV = CN[C@H](C(=O)O)C(C)C; NMeA = CN[C@@H](C)C(=O)O; βAla = NCCC(=O)O

Protein sequences, listed by entry. Tags and fused reporters are not part of them.
UniProt P08183, whole entry, looked up: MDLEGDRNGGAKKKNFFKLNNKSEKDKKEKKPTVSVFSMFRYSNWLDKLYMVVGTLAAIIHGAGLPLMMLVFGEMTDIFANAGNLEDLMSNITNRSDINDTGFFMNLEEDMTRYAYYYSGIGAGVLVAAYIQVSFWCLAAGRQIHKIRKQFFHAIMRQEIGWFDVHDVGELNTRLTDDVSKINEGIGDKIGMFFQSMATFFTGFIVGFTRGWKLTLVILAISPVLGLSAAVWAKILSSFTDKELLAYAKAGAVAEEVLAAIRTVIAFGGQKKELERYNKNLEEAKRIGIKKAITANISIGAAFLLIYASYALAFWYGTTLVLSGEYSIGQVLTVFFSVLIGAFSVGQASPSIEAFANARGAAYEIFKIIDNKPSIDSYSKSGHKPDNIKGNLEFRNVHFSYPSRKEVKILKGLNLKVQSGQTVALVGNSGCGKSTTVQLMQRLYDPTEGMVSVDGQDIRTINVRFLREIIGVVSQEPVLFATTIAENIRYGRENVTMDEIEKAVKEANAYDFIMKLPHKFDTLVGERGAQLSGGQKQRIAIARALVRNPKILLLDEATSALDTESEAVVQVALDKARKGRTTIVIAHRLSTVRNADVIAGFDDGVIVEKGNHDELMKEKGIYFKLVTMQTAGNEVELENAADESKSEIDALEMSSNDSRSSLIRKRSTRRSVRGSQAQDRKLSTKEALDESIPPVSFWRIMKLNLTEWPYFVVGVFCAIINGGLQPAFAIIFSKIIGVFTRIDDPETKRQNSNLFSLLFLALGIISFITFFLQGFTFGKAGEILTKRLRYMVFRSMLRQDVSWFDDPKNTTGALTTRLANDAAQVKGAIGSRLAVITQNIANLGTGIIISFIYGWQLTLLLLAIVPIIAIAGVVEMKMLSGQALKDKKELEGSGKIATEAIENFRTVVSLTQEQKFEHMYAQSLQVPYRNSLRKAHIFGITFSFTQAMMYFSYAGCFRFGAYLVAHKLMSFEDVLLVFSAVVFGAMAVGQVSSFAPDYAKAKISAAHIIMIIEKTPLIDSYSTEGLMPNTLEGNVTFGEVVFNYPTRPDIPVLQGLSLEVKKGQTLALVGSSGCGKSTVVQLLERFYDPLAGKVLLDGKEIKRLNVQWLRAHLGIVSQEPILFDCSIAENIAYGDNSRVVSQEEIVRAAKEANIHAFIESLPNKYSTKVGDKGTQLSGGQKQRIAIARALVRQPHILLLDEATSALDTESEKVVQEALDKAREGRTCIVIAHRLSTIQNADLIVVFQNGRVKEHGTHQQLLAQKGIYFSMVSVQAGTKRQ

Molecular target: ATP-dependent translocase ABCB1 (Homo sapiens) (UniProt P08183)
Assay: qHTS for characterization and localization of zebrafish homologs of the human ABCB1 multidrug transporter: P-gp overexpressing MDR-19 cells
Excerpt: The zebrafish has emerged as a potential model to study the blood-brain barrier (BBB) given its similarities with mammalian systems. However, little information has been available with regard to homologous ATP-binding cassette transporters expressed at the zebrafish BBB. Two transporters that are highly expressed at the human BBB are P-glycoprotein (P-gp, encoded by the ABCB1 gene) and ABCG2 (encoded by the ABCG2 gene). In this study, we focus on characterization of P-gp homologs in the zebrafish, which has two genes that are homologous to human ABCB1 - abcb4 and abcb5. We generated stably-transfected cell lines to determine their substrate specificities. […] Zebrafish abcb4 also colocalized with claudin 5 expression in brain endothelial cells.
A high-throughput screen was performed as previously described on empty vector transfected cells, P-gp-overexpressing MDR-19 cells and cells transfected with full-length zebrafish abcb4 (ZF Abcb4) or abcb5 (ZF Abcb5). Briefly, cells were plated into 1536-well plates at a density of 500 cells/well in 5 uL media. […] CellTiter-Glo reagent (Promega) was dispensed into the wells, incubated for 5 min and luminescence was read on a ViewLux instrument (Perkin-Elmer). […]

| Structure (SMILES) | Potency |
| --- | --- |
| CC[C@@H](C)[C@@H]1NC(=O)[C@@H]2CCCN2C(=O)[C@@H](CC(O)CCl)OC(=O)CCNC(=O)[C@H](C)N(C)C(=O)[C@H](C(C)C)N(C)C1=O (some centres not stated) (cyclo([NMeA][βAla][X1]P[aIle][NMeV])) | inactive |
| C=CCON=C(C[C@H]1O[C@@H]2O[C@]3(C)CC[C@@H]4[C@H](C)CC[C@@H]([C@H]1C)[C@@]24OO3)[C@H]1O[C@@H]2O[C@]3(C)CC[C@H]4[C@H](C)CC[C@@H]([C@@H]1C)[C@@]24OO3 | inconclusive: 0.662 µM [inhibitor, full curve] |
